No constants are given. Whether binding was seen depends on the method and setting. In cells and extracts the contact can be indirect. Sequences can lack the tags named with a protein.

In article PMC5807360 one finds binding data, which are given here for one molecule.

The experiment addresses RXEG1 ∆LRR-GFP (SP + eJM + TM + tail of RXEG1, GFP-tagged) (Nicotiana benthamiana). In words: co-IP; proteins co-expressed in N. benthamiana leaves, isolated at 2 dai; total protein extract (150-200 mM NaCl, 50 mM Tris-HCl pH 7.5, 10 mM EDTA, 1.0% NP-40); GFP-trap A beads, 4 °C, 2 h; blots with anti-GFP and anti-HA.

B1: XEG1-HA (Phytophthora sojae glycoside hydrolase 12 protein XEG1, C-terminal HA tag) (protein, UniProt G4ZHR2 20-241)
chain: GDYCGQWDWAKSTNYIVYNNLWNKNAAASGSQCTGVDKISGSTIAWHTSYTWTGGAATEVKSYSNAALVFSKKQIKNIKSIPTKMKYSYSHSSGTFVADVSYDLFTSSTASGSNEYEIMIWLAAYGGAGPISSTGKAIATVTIGSNSFKLYKGPNGSTTVFSFVATKTITNFSADLQKFLSYLTKNQGLPSSQYLITLEAGTEPFVGTNAKMTVSSFSAAVN
In the case of B1, the binding result is recorded as “no binding”.
